The subject of one series is DIO mice. Kind of series: Anti-hyperglycemic effects (OGTT, insulin) in DIO mice. As to conditions: 20 mg/kg oral, glucose 2 g/kg. It counts as in vivo, C57BL/6 mice. The protocol:
Blood samples were collected with retro-orbital sinus puncture, and glucose levels were measured in accordance with the OGTT in normal mice. Plasma insulin levels were measured using a mouse insulin RIA kit (Beijing North Institute of Biological Technology, Beijing, China).

The conditions of series [1]: stated in introduction, ref not given; cited from earlier work.
The nature of series [2]: Pharmacokinetic analysis in C57BL/6 mice. As to conditions: male, C57BL/6, mouse, in vivo, po, 10 mg/kg.

A word on the AUC: it is concentration integrated over time. A lower AUC goes with low exposure. The term Cmax denotes the peak of the concentration-time curve. In general, half-life refers to how long it takes for the measured level to halve. Low readings indicate fast loss, high ones slow loss.

Regarding `Cc1ccc(-c2ccc(F)cc2COc2ccc(CCC(=O)O)cc2)cc1` [TUG-891, reference compound], the “glucose AUC0–120 min” value in the series with DIO mice is on record as “significantly lower than that of vehicle-treated mice”. Also, in series [1], the half-life in vivo entry is given as “short half-life” and the “plasma clearance in vivo” value is “high plasma clearance”. In series [2], this molecule showed an AUC of 1410 ± 158 ng·h/mL, a Cmax of 1890 ± 255 ng/mL and a half-life of 36 ± 12 min.
